Experimental data: PubChem BioAssay AID1159578 (Peter MacCallum Cancer Centre, 2015)

Aim: 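siRNA pools altering how lymphatic endothelial cells close a scratch wound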 (primary screen)
Cells: human lymphatic endothelial cells
Reagents: siRNA pool against human genes, 40 nM
Timing: 48 h after transfection
Detection: 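High-content imaging of dye-stained cells in a scratch assay measures filled wound area and nuclei per well; duplicate means given as ratio to mock and robust z-score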
Direction: migration robust z-score: higher = faster migration into the scratch; nuclei per well: higher = more cells in the well
Rule for the call: 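Migration changed when robust z exceeds 2 or falls below -2 and mean nuclei number is at least 3300; otherwise not called changed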
Calls: active = migration changed; inactive = no migration change, or too few cells
Here is a random part of about 18,000 reagents. About 1,030 of them (5.7%) were called active. 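Inactive calls also include pools with fewer than 3300 nuclei, whose migration was not assessed.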 The raw values are shown without normalisation. Not all columns of the deposit are shown. Reagent sequences are not shown.

gene | migration robust z-score | migration class with cell-count check | nuclei per well, duplicate mean | activity call
NMU | -0.14 | migration z between -2 and 2; enough cells | 5996 | inactive
SPMIP4 | -0.92 | migration z between -2 and 2; enough cells | 5456 | inactive
EFCAB14 | -0.88 | migration z between -2 and 2; enough cells | 6270 | inactive
CSRP2 | -1.19 | migration z between -2 and 2; enough cells | 5333 | inactive
HIKESHI | 0.21 | migration z between -2 and 2; enough cells | 6144 | inactive
NME5 | -0.26 | migration z between -2 and 2; enough cells | 5964 | inactive
GALNT3 | -0.03 | migration z between -2 and 2; enough cells | 5788 | inactive
NOTUM | 0.17 | migration z between -2 and 2; enough cells | 7092 | inactive
RRAS | -0.28 | migration z between -2 and 2; enough cells | 5846 | inactive
PLPP2 | -0.31 | migration z between -2 and 2; enough cells | 3821 | inactive
OR51E1 | -0.2 | migration z between -2 and 2; enough cells | 4148 | inactive
OR3A4P | -1.21 | migration z between -2 and 2; enough cells | 4782 | inactive
IL10 | 0.34 | migration z between -2 and 2; enough cells | 5066 | inactive
SASH1 | 0.9 | migration z between -2 and 2; enough cells | 6744 | inactive
ZP2 | -0.84 | migration z between -2 and 2; enough cells | 5984 | inactive
ATXN10 | 1.47 | migration z between -2 and 2; enough cells | 5466 | inactive
OR10A6 | -0.35 | migration z between -2 and 2; enough cells | 5888 | inactive
CAMTA2 | 2.1 | migration z above 2; enough cells | 5814 | active
NFKBIB | -0.8 | migration z between -2 and 2; enough cells | 3930 | inactive
PDGFRB | -2.44 | migration z below -2; enough cells | 4441 | active
TAF1B | -0.24 | migration z between -2 and 2; enough cells | 5486 | inactive
PPP1R15A | 2.38 | migration z above 2; enough cells | 6199 | active
CSNK1E | -2.21 | under 3300 nuclei; migration not judged | 2584 | inactive
HIBADH | -2.36 | under 3300 nuclei; migration not judged | 3058 | inactive
TP53INP1 | -0.11 | migration z between -2 and 2; enough cells | 5140 | inactive
DPYSL5 | -0.08 | migration z between -2 and 2; enough cells | 6894 | inactive
APEX2 | 0.83 | migration z between -2 and 2; enough cells | 4752 | inactive
VAPB | 0.82 | migration z between -2 and 2; enough cells | 6862 | inactive
RIMS1 | -0.48 | migration z between -2 and 2; enough cells | 4920 | inactive
TRNAU1AP | 0.66 | migration z between -2 and 2; enough cells | 6841 | inactive
VEGFA | -0.97 | migration z between -2 and 2; enough cells | 6480 | inactive
EXOSC7 | 0.64 | migration z between -2 and 2; enough cells | 5536 | inactive
SEMA7A | 0.08 | migration z between -2 and 2; enough cells | 6078 | inactive
NOMO2 | 1.55 | migration z between -2 and 2; enough cells | 5628 | inactive
CST4 | 0.29 | migration z between -2 and 2; enough cells | 5616 | inactive
APOC3 | 0.32 | migration z between -2 and 2; enough cells | 6826 | inactive
TRIP12 | -0.05 | migration z between -2 and 2; enough cells | 4920 | inactive
GPR45 | -0.39 | migration z between -2 and 2; enough cells | 5678 | inactive
RNF4 | -0.36 | migration z between -2 and 2; enough cells | 6248 | inactive
GDPD2 | 1.35 | migration z between -2 and 2; enough cells | 5703 | inactive
CLEC4G | -1.57 | migration z between -2 and 2; enough cells | 5459 | inactive
WDR73 | -1.43 | migration z between -2 and 2; enough cells | 6726 | inactive
SPAG16 | 0.04 | migration z between -2 and 2; enough cells | 6322 | inactive
S100A10 | -0.38 | migration z between -2 and 2; enough cells | 4934 | inactive
FN3KRP | -4.57 | under 3300 nuclei; migration not judged | 2086 | inactive
P4HA3 | -0.2 | migration z between -2 and 2; enough cells | 4930 | inactive
NANOS1 | -0.9 | migration z between -2 and 2; enough cells | 4238 | inactive
OR2U1P | -0.5 | migration z between -2 and 2; enough cells | 6725 | inactive
PEX26 | 0.84 | migration z between -2 and 2; enough cells | 5746 | inactive
ACBD6 | -0.61 | migration z between -2 and 2; enough cells | 6026 | inactive
MRPL39 | 0.05 | migration z between -2 and 2; enough cells | 6249 | inactive
SLC22A9 | -0.44 | migration z between -2 and 2; enough cells | 5620 | inactive
FNDC5 | 0.16 | migration z between -2 and 2; enough cells | 4786 | inactive
TTC13 | -0.3 | migration z between -2 and 2; enough cells | 5010 | inactive
FBXW5 | -1.35 | migration z between -2 and 2; enough cells | 5004 | inactive
TMEM200B | -1.73 | migration z between -2 and 2; enough cells | 6814 | inactive
SF1 | 0.16 | migration z between -2 and 2; enough cells | 5489 | inactive
SOWAHB | -0.4 | migration z between -2 and 2; enough cells | 5550 | inactive
THBS1 | -0.74 | migration z between -2 and 2; enough cells | 6468 | inactive
GTF2H2 | -0.1 | migration z between -2 and 2; enough cells | 6227 | inactive
ZSCAN5A | 0.22 | migration z between -2 and 2; enough cells | 5346 | inactive
NCBP2 | -0.28 | migration z between -2 and 2; enough cells | 4923 | inactive
MRPS23 | 1.01 | migration z between -2 and 2; enough cells | 5708 | inactive
SPSB2 | 0.18 | migration z between -2 and 2; enough cells | 5668 | inactive
CDV3 | -0.28 | migration z between -2 and 2; enough cells | 6473 | inactive
NLRP3 | -0.24 | migration z between -2 and 2; enough cells | 6497 | inactive
LOXL4 | 0.24 | migration z between -2 and 2; enough cells | 6742 | inactive
HAPLN1 | -0.41 | migration z between -2 and 2; enough cells | 6228 | inactive
TAFA5 | -0.05 | migration z between -2 and 2; enough cells | 7486 | inactive
PTGS2 | -0.34 | migration z between -2 and 2; enough cells | 5276 | inactive
SCAMP5 | 0.91 | migration z between -2 and 2; enough cells | 5654 | inactive
PELI1 | -0.11 | migration z between -2 and 2; enough cells | 6051 | inactive
GFM1 | -1.27 | migration z between -2 and 2; enough cells | 5470 | inactive

Entries listed so far whose gene name begins with C or c:
gene | migration robust z-score | migration class with cell-count check | nuclei per well, duplicate mean | activity call
CSRP2 | -1.19 | migration z between -2 and 2; enough cells | 5333 | inactive
CAMTA2 | 2.1 | migration z above 2; enough cells | 5814 | active
CSNK1E | -2.21 | under 3300 nuclei; migration not judged | 2584 | inactive
CST4 | 0.29 | migration z between -2 and 2; enough cells | 5616 | inactive
CLEC4G | -1.57 | migration z between -2 and 2; enough cells | 5459 | inactive
CDV3 | -0.28 | migration z between -2 and 2; enough cells | 6473 | inactive
